Source: US10793514B2, “Glutamine transport inhibitors and methods for treating cancer” (Vanderbilt University, priority 2016, dated 2020)

Columns and labels:
[1] = Plasma glucose and glutamine analysis; assay type: in vivo, mouse; conditions: vs vehicle
[2] = system: HCC1806 cell line xenograft; assay: [18F]-4F-glutamine PET imaging; assay type: in vivo, mouse; conditions: single dose 75 mg/kg, 4 h
Procedure: Animal handling methods for PET imaging studies were conducted as reported^5,42 Prior to imaging, animals were allowed to acclimate to facility environment for at least 1 h in a warmed chamber at 31.5° C. Animals were administered 10.4-11.8 MBq 4-[^18F]fluoroglutamine via intravenous injection and imaged using a Concorde Microsystems Focus 220 microPET scanner (Siemens Preclinical Solutions). During imaging, animals were maintained under 2% isoflurane anesthesia in oxygen at 2 L/min and kept warm for the duration of the PET scan. PET images in xenograft-bearing mice were acquired as 60-minute dynamic data sets. […] PET data were reconstructed using a three-dimensional (3D) ordered subset expectation maximization/maximum a posteriori (OSEM3D/MAP) algorithm. […] ASIPro software (Siemens Preclinical Solutions) was used to manually draw 3D regions of interest (ROIs) surrounding the entire tumor volume. 4-[^18F]fluoroglutamine uptake was quantified as the percentage of the injected dose per gram of tissue (% ID/g). Significance was calculated using a t-test in Graphpad Prism. Error is reported as standard deviation (SD).
For in vivo studies, cell-line xenograft tumors were propagated in 6-week old, female athymic nude mice from immortalized cell lines. […] Tumor volumes were measured manually using calipers every third day and quantified using the formula V=W·L·(H/2).

SMILES: Cc1cccc(COc2ccccc2CN(CCC(N)C(=O)O)Cc2ccccc2OCc2cccc(C)c2)c1 (stereo not drawn) [Compound V-9302]
- plasma glucose levels, chronic exposure ([1]; 75 mg/kg daily, 21-day regimen): not significantly different
- plasma glutamine levels, chronic exposure ([1]; 75 mg/kg daily, 21-day regimen): slightly decreased
- elevation of plasma glutamine levels, acute exposure ([1]; single dose 75 mg/kg, 4 h): approximately 50%
- plasma glucose levels, acute exposure ([1]; single dose 75 mg/kg, 4 h): not significantly different
- [18F]-4F-glutamine uptake in muscle [2]: unaffected
- [18F]-4F-glutamine uptake in liver ([2]; p=0.05): modestly elevated
